± gives the standard deviation of the averaged measurements. Values are relative to the signal before dosing, not to a vehicle control; the signal also falls without drug.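 The tumor cells are basal-like or mesenchymal-like triple-negative breast cancer lines cultured without fibroblasts. Reduced red signal indicates lost mitochondrial integrity, serving as a proxy for apoptotic death.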
What was measured:
Assay in all cases: relative JC-1 red fluorescence (viability) vs pre-drug, monoculture (fraction); higher = more viable cancer cells
Details in all cases: coculture fibroblast: none (monoculture)
[1] = test system: HCC1143
Procedure: (§1)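 JC-1 labelled TNBC cells grown in monoculture (density kept equal with unlabelled cancer cells) in 384-well plates in FluoroBrite medium, treated with one of 42 anticancer drugs at 0.1, 1, 10 or 100 uM. JC-1 red fluorescence (mitochondrial integrity, surrogate of apoptotic death) was read by plate reader every 8 h for 72 h. Values are normalised to each well's pre-drug value, with background from alamethicin. The stock of one drug was tenfold lower, so its dose labels may be too high. Monoculture values are repeated alongside each fibroblast plate and are averaged here.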

[2] = test system: Hs578T
Procedure: as §1

[3] = test system: MDAMB468
Procedure: as §1

[4] = test system: BT20
Procedure: as §1

CO[C@@]12[C@H](COC(N)=O)C3=C(C(=O)C(C)=C(N)C3=O)N1C[C@@H]1N[C@@H]12 [Mitomycin C]
relative JC-1 red fluorescence
Details	8 h	16 h	24 h	32 h	40 h	48 h	56 h	64 h	72 h
[1], 0.1 µM	0.8842 ± 0.0061	0.8032 ± 0.0066	0.73 ± 0.013	0.686 ± 0.016	0.625 ± 0.018	0.587 ± 0.024	0.567 ± 0.016	0.547 ± 0.018	0.532 ± 0.021
[1], 1 µM	0.842 ± 0.018	0.7411 ± 0.0044	0.678 ± 0.0081	0.642 ± 0.014	0.592 ± 0.02	0.553 ± 0.029	0.531 ± 0.039	0.515 ± 0.043	0.499 ± 0.044
[1], 10 µM	0.864 ± 0.0014	0.7742 ± 0.0069	0.705 ± 0.014	0.648 ± 0.013	0.594 ± 0.015	0.54582 ± 5.4e-05	0.513 ± 0.0086	0.488 ± 0.018	0.476 ± 0.028
[1], 100 µM	0.607 ± 0.02	0.48 ± 0.043	0.421 ± 0.054	0.382 ± 0.069	0.361 ± 0.073	0.366 ± 0.075	0.362 ± 0.076	0.369 ± 0.08	0.377 ± 0.084
[2], 0.1 µM	0.8288 ± 0.0059	0.728 ± 0.021	0.694 ± 0.015	0.648 ± 0.029	0.604 ± 0.041	0.597 ± 0.055	0.577 ± 0.063	0.583 ± 0.078	0.584 ± 0.079
[2], 1 µM	0.809 ± 0.043	0.6783 ± 0.0026	0.65 ± 0.012	0.567 ± 0.017	0.519 ± 0.023	0.497 ± 0.031	0.479 ± 0.039	0.481 ± 0.045	0.477 ± 0.044
[2], 10 µM	0.836 ± 0.028	0.75 ± 0.059	0.668 ± 0.083	0.598 ± 0.068	0.543 ± 0.064	0.497 ± 0.046	0.475 ± 0.032	0.464 ± 0.024	0.45 ± 0.018
[2], 100 µM	0.6564 ± 0.0053	0.58 ± 0.062	0.664 ± 0.1	0.566 ± 0.087	0.548 ± 0.086	0.548 ± 0.086	0.548 ± 0.087	0.571 ± 0.094	0.574 ± 0.092
[3], 0.1 µM	0.891 ± 0.011	0.844 ± 0.021	0.8 ± 0.03	0.705 ± 0.013	0.667 ± 0.0099	0.631 ± 0.012	0.59 ± 0.0073	0.566 ± 0.014	0.547 ± 0.0077
[3], 1 µM	0.872 ± 0.011	0.7568 ± 0.0036	0.78 ± 0.034	0.727 ± 0.062	0.691 ± 0.074	0.708 ± 0.1	0.7 ± 0.11	0.685 ± 0.12	0.69 ± 0.13
[3], 10 µM	0.8995 ± 0.0043	0.818 ± 0.032	0.715 ± 0.043	0.618 ± 0.06	0.559 ± 0.064	0.503 ± 0.068	0.46 ± 0.064	0.428 ± 0.057	0.417 ± 0.061
[3], 100 µM	0.566 ± 0.041	0.608 ± 0.028	0.603 ± 0.033	0.551 ± 0.034	0.518 ± 0.031	0.535 ± 0.029	0.51 ± 0.033	0.513 ± 0.03	0.518 ± 0.026
[4], 0.1 µM	0.946 ± 0.0097	0.889 ± 0.017	0.761 ± 0.02	0.689 ± 0.03	0.654 ± 0.043	0.621 ± 0.035	0.597 ± 0.048	0.567 ± 0.055	0.562 ± 0.057
[4], 1 µM	0.894 ± 0.007	0.801 ± 0.012	0.789 ± 0.015	0.733 ± 0.02	0.691 ± 0.026	0.659 ± 0.029	0.63 ± 0.031	0.605 ± 0.026	0.585 ± 0.023
[4], 10 µM	0.907 ± 0.013	0.84 ± 0.023	0.735 ± 0.025	0.646 ± 0.035	0.581 ± 0.046	0.536 ± 0.068	0.512 ± 0.079	0.49 ± 0.082	0.477 ± 0.064
[4], 100 µM	0.744 ± 0.018	0.601 ± 0.038	0.739 ± 0.089	0.691 ± 0.081	0.662 ± 0.082	0.675 ± 0.078	0.656 ± 0.081	0.67 ± 0.077	0.672 ± 0.076

O=C(CCCCCCC(=O)Nc1ccccc1)NO [Vorinostat]
relative JC-1 red fluorescence
Details	8 h	16 h	24 h	32 h	40 h	48 h	56 h	64 h	72 h
[1], 0.1 µM	0.9035 ± 0.0065	0.7904 ± 0.0078	0.755 ± 0.031	0.706 ± 0.038	0.678 ± 0.048	0.652 ± 0.069	0.638 ± 0.082	0.632 ± 0.098	0.627 ± 0.1
[1], 1 µM	0.8486 ± 0.003	0.768 ± 0.006	0.684 ± 0.023	0.621 ± 0.018	0.56 ± 0.027	0.521 ± 0.029	0.493 ± 0.037	0.47 ± 0.039	0.463 ± 0.04
[1], 10 µM	0.871 ± 0.014	0.781 ± 0.022	0.67 ± 0.023	0.616 ± 0.034	0.561 ± 0.047	0.539 ± 0.064	0.521 ± 0.068	0.514 ± 0.08	0.506 ± 0.083
[1], 100 µM	0.8935 ± 0.0061	0.766 ± 0.0059	0.663 ± 0.011	0.571 ± 0.018	0.506 ± 0.0069	0.4788 ± 0.0013	0.455 ± 0.0051	0.447 ± 0.0083	0.444 ± 0.011
[2], 0.1 µM	0.849 ± 0.025	0.728 ± 0.043	0.718 ± 0.012	0.66 ± 0.0082	0.657 ± 0.015	0.659 ± 0.031	0.649 ± 0.042	0.661 ± 0.054	0.662 ± 0.054
[2], 1 µM	0.8368 ± 0.0014	0.743 ± 0.025	0.636 ± 0.032	0.561 ± 0.0086	0.511 ± 0.029	0.498 ± 0.04	0.47 ± 0.048	0.473 ± 0.051	0.479 ± 0.063
[2], 10 µM	0.8321 ± 0.0013	0.7044 ± 0.0059	0.591 ± 0.031	0.499 ± 0.032	0.441 ± 0.049	0.416 ± 0.057	0.388 ± 0.062	0.392 ± 0.071	0.385 ± 0.073
[2], 100 µM	0.8677 ± 0.0073	0.7366 ± 0.0068	0.66 ± 0.054	0.561 ± 0.055	0.52 ± 0.078	0.505 ± 0.1	0.488 ± 0.1	0.504 ± 0.11	0.508 ± 0.12
[3], 0.1 µM	0.8956 ± 0.0029	0.81 ± 0.011	0.739 ± 0.02	0.673 ± 0.012	0.625 ± 0.0097	0.611 ± 0.015	0.575 ± 0.019	0.565 ± 0.017	0.557 ± 0.012
[3], 1 µM	0.8646 ± 0.0086	0.788 ± 0.029	0.702 ± 0.025	0.615 ± 0.018	0.553 ± 0.022	0.538 ± 0.022	0.505 ± 0.028	0.498 ± 0.026	0.496 ± 0.017
[3], 10 µM	0.8854 ± 0.0087	0.739 ± 0.014	0.618 ± 0.013	0.521 ± 0.029	0.471 ± 0.029	0.456 ± 0.043	0.426 ± 0.051	0.418 ± 0.054	0.409 ± 0.055
[3], 100 µM	0.915 ± 0.014	0.795 ± 0.03	0.65 ± 0.029	0.508 ± 0.055	0.452 ± 0.068	0.424 ± 0.08	0.379 ± 0.077	0.359 ± 0.073	0.354 ± 0.07
[4], 0.1 µM	0.95 ± 0.013	0.824 ± 0.021	0.751 ± 0.0092	0.6731 ± 0.0025	0.6226 ± 0.0049	0.5886 ± 0.0038	0.56 ± 0.0085	0.543 ± 0.014	0.527 ± 0.017
[4], 1 µM	0.9226 ± 0.002	0.8651 ± 0.0071	0.7626 ± 0.006	0.6881 ± 0.0024	0.647 ± 0.02	0.615 ± 0.014	0.584 ± 0.014	0.563 ± 0.0058	0.544 ± 0.0095
[4], 10 µM	0.947 ± 0.016	0.871 ± 0.038	0.728 ± 0.037	0.653 ± 0.046	0.612 ± 0.048	0.585 ± 0.055	0.556 ± 0.042	0.53 ± 0.038	0.51 ± 0.029
[4], 100 µM	0.948 ± 0.011	0.884 ± 0.012	0.788 ± 0.013	0.69 ± 0.023	0.647 ± 0.042	0.624 ± 0.049	0.558 ± 0.059	0.509 ± 0.052	0.479 ± 0.043

— the supplement of paper PMC6078165
